This note sets out measurements from the supplement of paper PMC10849652.

The chains behind the UniProt entries cited, without tags or fusion partners. Where a name states a change or a piece, a line headed by the entry shows the natural chain unless it says otherwise.
UniProt Q8NEY8: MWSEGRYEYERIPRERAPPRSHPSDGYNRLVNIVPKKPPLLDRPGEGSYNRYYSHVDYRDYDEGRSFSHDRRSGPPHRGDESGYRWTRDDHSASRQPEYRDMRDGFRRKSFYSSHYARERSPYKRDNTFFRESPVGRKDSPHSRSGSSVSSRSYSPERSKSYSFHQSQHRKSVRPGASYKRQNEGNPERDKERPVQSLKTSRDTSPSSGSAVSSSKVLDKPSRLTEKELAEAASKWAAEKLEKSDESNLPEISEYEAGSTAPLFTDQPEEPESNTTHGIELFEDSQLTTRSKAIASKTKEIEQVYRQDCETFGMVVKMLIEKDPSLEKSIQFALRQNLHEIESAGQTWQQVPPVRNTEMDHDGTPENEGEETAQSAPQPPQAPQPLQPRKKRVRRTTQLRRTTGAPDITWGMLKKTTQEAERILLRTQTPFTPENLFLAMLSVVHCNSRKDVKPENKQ
UniProt Q8IY17: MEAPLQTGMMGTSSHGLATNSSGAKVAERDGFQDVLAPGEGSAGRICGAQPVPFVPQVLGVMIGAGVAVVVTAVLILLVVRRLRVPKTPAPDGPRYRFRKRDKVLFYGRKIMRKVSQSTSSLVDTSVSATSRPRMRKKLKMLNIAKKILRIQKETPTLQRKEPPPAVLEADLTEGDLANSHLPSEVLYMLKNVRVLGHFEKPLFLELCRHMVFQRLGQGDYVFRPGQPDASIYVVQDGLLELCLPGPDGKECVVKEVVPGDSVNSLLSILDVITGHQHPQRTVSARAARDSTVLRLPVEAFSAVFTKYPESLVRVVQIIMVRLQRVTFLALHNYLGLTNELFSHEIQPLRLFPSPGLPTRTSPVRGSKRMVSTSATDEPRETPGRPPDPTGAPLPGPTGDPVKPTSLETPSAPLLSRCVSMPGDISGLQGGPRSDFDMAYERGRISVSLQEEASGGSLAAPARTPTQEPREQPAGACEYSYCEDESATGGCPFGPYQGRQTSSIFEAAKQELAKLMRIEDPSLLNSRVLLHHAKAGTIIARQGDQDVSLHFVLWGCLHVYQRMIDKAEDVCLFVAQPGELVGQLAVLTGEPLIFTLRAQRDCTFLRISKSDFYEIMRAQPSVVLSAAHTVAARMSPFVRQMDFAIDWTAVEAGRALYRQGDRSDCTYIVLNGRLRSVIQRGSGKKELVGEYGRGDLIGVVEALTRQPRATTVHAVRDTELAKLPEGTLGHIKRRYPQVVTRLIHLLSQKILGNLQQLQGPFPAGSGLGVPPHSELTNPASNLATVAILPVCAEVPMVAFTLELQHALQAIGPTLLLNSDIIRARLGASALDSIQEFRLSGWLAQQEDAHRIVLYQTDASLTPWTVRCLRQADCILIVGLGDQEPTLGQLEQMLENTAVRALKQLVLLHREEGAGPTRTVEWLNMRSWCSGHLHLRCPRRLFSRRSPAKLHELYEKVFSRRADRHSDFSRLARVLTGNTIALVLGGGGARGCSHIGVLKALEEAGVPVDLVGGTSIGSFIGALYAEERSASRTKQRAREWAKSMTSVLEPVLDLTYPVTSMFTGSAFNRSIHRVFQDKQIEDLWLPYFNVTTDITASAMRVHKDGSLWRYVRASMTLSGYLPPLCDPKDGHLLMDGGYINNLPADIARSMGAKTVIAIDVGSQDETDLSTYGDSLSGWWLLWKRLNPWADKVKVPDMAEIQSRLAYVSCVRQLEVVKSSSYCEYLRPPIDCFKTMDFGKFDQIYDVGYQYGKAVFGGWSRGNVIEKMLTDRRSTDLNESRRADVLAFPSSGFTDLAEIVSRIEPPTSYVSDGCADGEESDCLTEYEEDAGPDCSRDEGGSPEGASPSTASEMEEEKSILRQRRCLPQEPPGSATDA
UniProt Q8WVV4: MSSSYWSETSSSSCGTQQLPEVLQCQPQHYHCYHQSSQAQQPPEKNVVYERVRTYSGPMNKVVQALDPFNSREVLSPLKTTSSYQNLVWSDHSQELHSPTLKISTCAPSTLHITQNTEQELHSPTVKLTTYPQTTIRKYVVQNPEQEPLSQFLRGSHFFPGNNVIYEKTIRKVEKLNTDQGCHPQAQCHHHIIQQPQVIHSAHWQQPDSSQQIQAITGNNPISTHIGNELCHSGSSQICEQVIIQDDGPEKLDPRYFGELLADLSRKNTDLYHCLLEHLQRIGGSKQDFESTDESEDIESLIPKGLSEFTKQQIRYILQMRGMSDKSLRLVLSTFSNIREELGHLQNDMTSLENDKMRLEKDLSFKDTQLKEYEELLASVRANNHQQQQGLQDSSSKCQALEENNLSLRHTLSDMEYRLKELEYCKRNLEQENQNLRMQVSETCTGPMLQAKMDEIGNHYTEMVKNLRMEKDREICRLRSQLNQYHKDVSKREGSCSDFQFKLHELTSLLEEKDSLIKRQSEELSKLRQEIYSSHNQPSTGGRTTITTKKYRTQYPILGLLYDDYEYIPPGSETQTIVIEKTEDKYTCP
UniProt Q9NR33: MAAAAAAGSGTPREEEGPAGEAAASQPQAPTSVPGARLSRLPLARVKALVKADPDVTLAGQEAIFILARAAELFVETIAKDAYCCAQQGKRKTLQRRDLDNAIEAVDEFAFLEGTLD
UniProt P53350, whole entry, looked up: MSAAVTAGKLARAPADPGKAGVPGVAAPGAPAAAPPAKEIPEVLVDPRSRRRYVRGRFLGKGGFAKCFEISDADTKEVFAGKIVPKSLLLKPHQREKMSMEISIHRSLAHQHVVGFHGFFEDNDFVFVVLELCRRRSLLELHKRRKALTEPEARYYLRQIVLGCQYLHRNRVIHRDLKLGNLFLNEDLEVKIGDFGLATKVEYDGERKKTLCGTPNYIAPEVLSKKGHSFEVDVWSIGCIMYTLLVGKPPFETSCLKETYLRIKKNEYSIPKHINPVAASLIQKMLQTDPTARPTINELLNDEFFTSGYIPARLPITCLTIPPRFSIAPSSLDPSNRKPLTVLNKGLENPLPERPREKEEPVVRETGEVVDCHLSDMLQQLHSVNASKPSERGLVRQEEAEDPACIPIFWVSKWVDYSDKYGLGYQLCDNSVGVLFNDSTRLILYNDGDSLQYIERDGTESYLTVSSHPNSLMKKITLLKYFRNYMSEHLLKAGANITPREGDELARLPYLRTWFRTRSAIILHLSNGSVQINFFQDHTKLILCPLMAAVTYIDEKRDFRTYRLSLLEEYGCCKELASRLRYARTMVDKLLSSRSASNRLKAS
UniProt Q9Y4D7: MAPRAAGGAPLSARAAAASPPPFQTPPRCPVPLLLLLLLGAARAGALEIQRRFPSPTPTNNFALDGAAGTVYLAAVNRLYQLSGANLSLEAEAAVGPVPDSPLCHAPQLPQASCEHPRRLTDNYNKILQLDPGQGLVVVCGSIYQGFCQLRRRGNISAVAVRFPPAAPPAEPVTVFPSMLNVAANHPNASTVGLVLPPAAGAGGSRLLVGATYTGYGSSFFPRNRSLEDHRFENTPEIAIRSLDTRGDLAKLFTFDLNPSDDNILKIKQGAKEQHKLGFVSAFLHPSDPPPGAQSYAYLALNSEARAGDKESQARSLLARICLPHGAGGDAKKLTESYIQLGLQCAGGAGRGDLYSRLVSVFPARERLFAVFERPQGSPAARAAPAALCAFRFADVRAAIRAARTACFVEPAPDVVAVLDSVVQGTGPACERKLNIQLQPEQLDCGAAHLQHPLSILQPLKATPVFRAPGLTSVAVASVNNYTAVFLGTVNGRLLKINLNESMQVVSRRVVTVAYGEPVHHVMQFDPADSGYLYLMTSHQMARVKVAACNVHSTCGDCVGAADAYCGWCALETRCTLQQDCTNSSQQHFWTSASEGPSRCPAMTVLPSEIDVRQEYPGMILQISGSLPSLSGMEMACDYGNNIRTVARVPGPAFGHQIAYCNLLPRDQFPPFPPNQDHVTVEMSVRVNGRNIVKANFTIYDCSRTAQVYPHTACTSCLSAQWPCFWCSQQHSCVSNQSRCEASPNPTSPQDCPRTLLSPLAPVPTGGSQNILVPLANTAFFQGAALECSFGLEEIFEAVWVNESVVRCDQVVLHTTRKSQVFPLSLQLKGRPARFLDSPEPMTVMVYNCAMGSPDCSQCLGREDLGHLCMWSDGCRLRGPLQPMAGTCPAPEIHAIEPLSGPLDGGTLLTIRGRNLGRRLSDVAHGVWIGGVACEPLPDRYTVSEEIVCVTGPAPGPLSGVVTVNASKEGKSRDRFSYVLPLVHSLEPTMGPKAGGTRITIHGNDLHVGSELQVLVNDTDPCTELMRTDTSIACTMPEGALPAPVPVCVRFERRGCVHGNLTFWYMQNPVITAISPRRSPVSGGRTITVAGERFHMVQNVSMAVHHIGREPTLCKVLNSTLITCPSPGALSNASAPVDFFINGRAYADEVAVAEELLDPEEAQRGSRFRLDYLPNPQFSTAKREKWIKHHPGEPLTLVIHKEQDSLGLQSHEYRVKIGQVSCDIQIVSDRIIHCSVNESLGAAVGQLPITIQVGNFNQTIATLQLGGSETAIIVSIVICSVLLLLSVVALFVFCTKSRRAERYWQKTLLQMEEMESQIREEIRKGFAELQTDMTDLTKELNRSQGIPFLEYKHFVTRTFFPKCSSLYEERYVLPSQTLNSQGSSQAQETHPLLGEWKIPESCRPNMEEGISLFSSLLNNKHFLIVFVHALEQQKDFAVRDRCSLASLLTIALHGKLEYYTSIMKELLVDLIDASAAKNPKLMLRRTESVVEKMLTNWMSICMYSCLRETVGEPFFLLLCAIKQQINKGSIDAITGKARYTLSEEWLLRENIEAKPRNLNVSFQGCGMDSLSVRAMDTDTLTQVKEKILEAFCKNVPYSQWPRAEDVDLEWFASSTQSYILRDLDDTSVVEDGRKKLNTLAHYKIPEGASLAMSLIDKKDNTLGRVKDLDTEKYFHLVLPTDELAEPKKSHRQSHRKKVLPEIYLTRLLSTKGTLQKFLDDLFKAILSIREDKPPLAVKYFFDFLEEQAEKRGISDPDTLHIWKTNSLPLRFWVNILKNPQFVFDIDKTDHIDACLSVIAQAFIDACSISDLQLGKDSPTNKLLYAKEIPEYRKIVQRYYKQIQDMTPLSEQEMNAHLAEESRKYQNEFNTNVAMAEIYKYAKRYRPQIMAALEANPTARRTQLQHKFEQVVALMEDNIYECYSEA
UniProt P62937, whole entry, looked up: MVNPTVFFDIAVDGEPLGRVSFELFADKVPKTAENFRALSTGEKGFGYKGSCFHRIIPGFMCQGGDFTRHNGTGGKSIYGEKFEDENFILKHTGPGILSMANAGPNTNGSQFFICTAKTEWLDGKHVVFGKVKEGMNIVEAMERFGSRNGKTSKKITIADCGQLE
UniProt Q92871: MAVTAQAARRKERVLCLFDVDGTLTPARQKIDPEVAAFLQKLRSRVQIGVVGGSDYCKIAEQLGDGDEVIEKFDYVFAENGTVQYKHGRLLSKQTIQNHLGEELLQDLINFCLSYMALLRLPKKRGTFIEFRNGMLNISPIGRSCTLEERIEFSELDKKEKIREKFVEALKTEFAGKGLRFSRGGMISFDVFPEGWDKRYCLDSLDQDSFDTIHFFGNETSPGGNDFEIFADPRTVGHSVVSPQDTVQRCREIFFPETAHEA
UniProt Q9H307: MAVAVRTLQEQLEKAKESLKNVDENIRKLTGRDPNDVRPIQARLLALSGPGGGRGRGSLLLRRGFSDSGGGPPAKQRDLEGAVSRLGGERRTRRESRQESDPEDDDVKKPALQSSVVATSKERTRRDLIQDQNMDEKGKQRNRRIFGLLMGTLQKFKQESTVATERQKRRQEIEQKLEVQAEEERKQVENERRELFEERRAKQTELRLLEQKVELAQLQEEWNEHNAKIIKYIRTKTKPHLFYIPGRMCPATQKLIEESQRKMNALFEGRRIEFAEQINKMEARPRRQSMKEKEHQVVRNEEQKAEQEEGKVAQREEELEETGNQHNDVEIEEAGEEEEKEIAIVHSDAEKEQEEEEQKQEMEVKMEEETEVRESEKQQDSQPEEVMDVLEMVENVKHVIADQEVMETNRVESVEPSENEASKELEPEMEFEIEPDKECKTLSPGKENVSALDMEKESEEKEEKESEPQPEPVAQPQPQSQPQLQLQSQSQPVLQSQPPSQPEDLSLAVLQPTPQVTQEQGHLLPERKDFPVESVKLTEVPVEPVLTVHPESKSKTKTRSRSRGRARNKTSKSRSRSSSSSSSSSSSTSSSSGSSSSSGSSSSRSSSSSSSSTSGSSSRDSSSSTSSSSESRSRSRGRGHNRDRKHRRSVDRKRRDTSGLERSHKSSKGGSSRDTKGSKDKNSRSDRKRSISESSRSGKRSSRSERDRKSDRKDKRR
UniProt P0DPB5: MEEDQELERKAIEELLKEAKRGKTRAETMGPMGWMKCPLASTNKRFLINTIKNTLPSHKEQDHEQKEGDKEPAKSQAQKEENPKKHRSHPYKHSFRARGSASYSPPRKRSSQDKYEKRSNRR
UniProt Q9HCU8: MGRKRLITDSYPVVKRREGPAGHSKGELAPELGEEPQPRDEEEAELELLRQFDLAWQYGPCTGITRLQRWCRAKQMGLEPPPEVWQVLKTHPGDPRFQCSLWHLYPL
UniProt Q9NW61: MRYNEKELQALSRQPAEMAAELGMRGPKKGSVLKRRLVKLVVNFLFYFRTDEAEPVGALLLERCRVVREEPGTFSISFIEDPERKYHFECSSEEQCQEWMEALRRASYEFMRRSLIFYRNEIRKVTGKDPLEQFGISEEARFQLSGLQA

Some of the results follow.

Compound in one test: CNC(=O)c1ccc(Nc2ncc(C(F)(F)F)c(NCc3nccnc3N(C)S(C)(=O)=O)n2)cc1 [defactinib]
Description: log2 fold change, soluble protein after heating vs DMSO (PISA); higher = thermal stabilisation; K562 cells, 10 uM, 30 min; active = over 0.2 and 3.5 SD of the protein, either way, in both replicates (recomputed). The method, boiled down:
(§1)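 Aliquots of K562 cells (2×10^6 cells/mL) treated with 10 μM compound for 30 min were heated for 3 min over 48°C-58°C. After pooling and extraction in PBS with 0.5% NP-40 at 4°C, soluble protein from a 21,000xg, 90 min spin was quantified by TMTpro 16plex LC-MS/MS with channel sums equalised. Thermal stability is expressed against control samples, from duplicates, as a log2 fold change.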
POC1A (UniProt Q8NBT0): the log2 fold change is inactive: 0.123.

As to PPHLN1 (UniProt Q8NEY8), the log2 fold change is inactive: 0.061.

In the case of PNPLA6 (UniProt Q8IY17), the log2 fold change was inactive: 0.047.

As to POF1B isoform 1 (UniProt Q8WVV4), the log2 fold change is inactive: -0.067.

On to POLE4 (UniProt Q9NR33), for which the log2 fold change was inactive: -0.045.

For the target POLR1E isoform 1 (UniProt Q9GZS1), the log2 fold change is inactive: 0.107.

POLR2E (UniProt P19388): the log2 fold change was inactive: 0.216.

On to PLEKHO2 (UniProt Q8TD55), for which the log2 fold change is inactive: -0.053.

For the target POLRMT (UniProt O00411), the log2 fold change is inactive: 0.068.

As for PLK1 (UniProt P53350), the log2 fold change was inactive: -0.165.

Turning to PLXND1 (UniProt Q9Y4D7), the log2 fold change was inactive: 0.035.

As for POMT1 (UniProt Q9Y6A1), the log2 fold change is inactive: -0.004.

In the case of PORCN (UniProt Q9H237), the log2 fold change was inactive: 0.138.

On to POLR3D (UniProt P05423), for which the log2 fold change was inactive: -0.027.

PPIA isoform 2 (UniProt P62937): the log2 fold change was inactive: -0.056.

For the target POMT2 (UniProt Q9UKY4), the log2 fold change is inactive: 0.02.

In the case of PMM1 (UniProt Q92871), the log2 fold change was inactive: -0.007.

For the target PMVK (UniProt Q15126), the log2 fold change was inactive: 0.02.

Compound in a further test: CNCc1ccc(-c2[nH]c3cc(F)cc4c3c2CCNC4=O)cc1 [rucaparib]
The description is as above. In a few lines: as §1
As to POC1A (UniProt Q8NBT0), the log2 fold change was inactive: 0.379.

Regarding PLOD2 isoform 2 (UniProt O00469), the log2 fold change is inactive: -0.126.

With PPHLN1 (UniProt Q8NEY8), the log2 fold change is inactive: 0.053.

For the target PNPLA6 (UniProt Q8IY17), the log2 fold change is inactive: 0.127.

For POF1B isoform 1 (UniProt Q8WVV4), the log2 fold change was inactive: -0.305.

In the case of PNN (UniProt Q9H307), the log2 fold change is inactive: 0.303.

Regarding POLE4 (UniProt Q9NR33), the log2 fold change is inactive: 0.

Regarding POLR2J (UniProt P52435), the log2 fold change was inactive: 0.083.

POLR1D (UniProt P0DPB5): the log2 fold change is inactive: 0.123.

Turning to POLR2E (UniProt P19388), the log2 fold change was inactive: 0.153.

With PLEKHO2 (UniProt Q8TD55), the log2 fold change is inactive: 0.057.

For POLD4 (UniProt Q9HCU8), the log2 fold change was inactive: 0.227.

In the case of PLK1 (UniProt P53350), the log2 fold change is inactive: 0.052.

PLXND1 (UniProt Q9Y4D7): the log2 fold change is inactive: 0.109.

On to PLIN3 isoform 2 (UniProt O60664), for which the log2 fold change is inactive: 0.194.

Consider POLB (UniProt P06746), for which the log2 fold change was inactive: 0.095.

PPIA isoform 2 (UniProt P62937): the log2 fold change is inactive: -0.42.

For the target POMT2 (UniProt Q9UKY4), the log2 fold change is inactive: -0.084.

As to PMM1 (UniProt Q92871), the log2 fold change is inactive: 0.095.

Compound in a further test: CNc1nc(-c2ccc3c(N)n[nH]c3c2)cc(N2C[C@@H](C(=O)NC3CCCCC3)CC[C@H]2C)n1
Described as above. The method, boiled down:
as §1
On to POC1A (UniProt Q8NBT0), for which the log2 fold change was inactive: 0.197.

Consider PLEKHJ1 (UniProt Q9NW61), for which the log2 fold change is inactive: 0.179.

Regarding PM20D2 (UniProt Q8IYS1), the log2 fold change is inactive: 0.069.

In the case of PLOD2 isoform 2 (UniProt O00469), the log2 fold change was inactive: -0.101.

For the target PPHLN1 (UniProt Q8NEY8), the log2 fold change was inactive: -0.03.

As to PNPLA6 (UniProt Q8IY17), the log2 fold change was inactive: 0.021.

For POF1B isoform 1 (UniProt Q8WVV4), the log2 fold change was inactive: -0.26.

In the case of PNN (UniProt Q9H307), the log2 fold change was inactive: -0.071.

Consider POLR2J (UniProt P52435), for which the log2 fold change was inactive: -0.332.

For the target POLR1E isoform 1 (UniProt Q9GZS1), the log2 fold change was inactive: 0.162.

As to PPIG (UniProt Q13427), the log2 fold change is inactive: -0.191.

As for POLR2E (UniProt P19388), the log2 fold change is inactive: 0.104.

On to POLD4 (UniProt Q9HCU8), for which the log2 fold change is inactive: -0.026.

With POLRMT (UniProt O00411), the log2 fold change is inactive: -0.037.

In the case of PLK1 (UniProt P53350), the log2 fold change was inactive: -0.008.

With PLXND1 (UniProt Q9Y4D7), the log2 fold change was inactive: -0.35.

Take POMT1 (UniProt Q9Y6A1): the log2 fold change was inactive: 0.031.

POLB (UniProt P06746): the log2 fold change is inactive: 0.05.

Consider POLR3D (UniProt P05423), for which the log2 fold change is inactive: 0.425.

Take PPIA isoform 2 (UniProt P62937): the log2 fold change is inactive: -0.08.

As for POMT2 (UniProt Q9UKY4), the log2 fold change is inactive: 0.06.

Take PMM1 (UniProt Q92871): the log2 fold change was inactive: 0.028.

As to PLXNA3 (UniProt P51805), the log2 fold change is inactive: -0.117.

As to POLG, A0A3B3IS91, the log2 fold change was inactive: -0.082.

PMVK (UniProt Q15126): the log2 fold change was inactive: -0.039.

Compound in another test: COC(=O)N[C@@H](C)CNc1nccc(-c2cn(C(C)C)nc2-c2cc(Cl)cc(NS(C)(=O)=O)c2F)n1 [encorafenib]
Described as above. In a few lines:
as §1
On to POC1A (UniProt Q8NBT0), for which the log2 fold change was inactive: -0.022.

For PLOD2 isoform 2 (UniProt O00469), the log2 fold change was inactive: -0.199.

Consider PPHLN1 (UniProt Q8NEY8), for which the log2 fold change is inactive: -0.122.

PNPLA6 (UniProt Q8IY17): the log2 fold change is inactive: 0.046.

As for POF1B isoform 1 (UniProt Q8WVV4), the log2 fold change is inactive: -0.154.

Take PNN (UniProt Q9H307): the log2 fold change is inactive: -0.174.

For the target POLE4 (UniProt Q9NR33), the log2 fold change is inactive: -0.007.

As for POLR2J (UniProt P52435), the log2 fold change was inactive: -0.014.

POLR1D (UniProt P0DPB5): the log2 fold change was inactive: 0.01.

As for POLR2E (UniProt P19388), the log2 fold change is inactive: 0.025.

For PLEKHO2 (UniProt Q8TD55), the log2 fold change was inactive: 0.112.

Take POLD4 (UniProt Q9HCU8): the log2 fold change was inactive: 0.031.

PLK1 (UniProt P53350): the log2 fold change is inactive: 0.058.

With PLXND1 (UniProt Q9Y4D7), the log2 fold change was inactive: 0.256.

With PLIN3 isoform 2 (UniProt O60664), the log2 fold change was inactive: -0.206.

Turning to POLB (UniProt P06746), the log2 fold change is inactive: 0.031.

Consider PPIA isoform 2 (UniProt P62937), for which the log2 fold change was inactive: 0.

POMT2 (UniProt Q9UKY4): the log2 fold change is inactive: 0.088.

In the case of PMM1 (UniProt Q92871), the log2 fold change is inactive: -0.017.
